# PubChem BioAssay AID1259415 (National Center for Advancing Translational Sciences (NCATS), 2018)
# Hit rate of the full screen: of about 410,000 compounds, about 18,000 (4.4%) were called active. This list was built around the results that the source calls inconclusive (neither active nor inactive); the mix of calls is not that of the screen. Rule as the data show it: active = activity change below about -60%; inconclusive = no clear call, values can overlap the other calls; inactive = above about -39%.
# Assay: qHTS Assay for inhibitors of the human cytomegalovirus (HCMV)
# Conditions: HFF cells, HCMV-luciferase reporter, 72 h; at 57.5 µM; hits give low values
# Outline: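 Human foreskin fibroblasts infected with luciferase-reporter HCMV at MOI 1 PFU/cell, compounds at two doses. Luciferase measured 72 h post infection; normalized to buffer-only basal and Salinomycin (10uM) controls.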
# % is scaled to controls: 0 for no effect and ±100 for the full control effect.
row,Structure (SMILES),"activity change, negative = inhibition"
1,COc1ccc(OCC(=O)Nc2ccc(N3CCN(C(=O)c4ccco4)CC3)cc2)cc1,inconclusive: -42.7%
2,COc1ccc(NC(=O)C2(C)CCN2CCOc2ccc(C)cc2)cc1OC (stereo not drawn),inconclusive: -42.7%
3,CCN(Cc1ccncc1)C(=O)c1ccc(Br)o1,inactive: -28%
4,COc1ccc(N2CCN(C(=O)CSc3ncccc3-c3nc4ccccc4[nH]3)CC2)cc1,inconclusive: -59.9%
5,Cc1nn(-c2ccccc2)c(Cl)c1/C=C/C(=O)c1ccc(O)cc1,inconclusive: -50.7%
6,COC(=O)CSc1nnc(-c2sc3ccccc3c2Cl)o1,inconclusive: -56.7%
7,NS(=O)(=O)c1ccc(N/N=C/c2ccc(O)cc2O)c([N+](=O)[O-])c1,active: -78.3%
8,CCOC(=O)c1cnc2c(C(F)(F)F)cccc2c1N1CCOCC1,inconclusive: -43.6%
9,CS(=O)(=O)c1ccccc1-c1nnc(NC(=O)c2ccco2)o1,inconclusive: -41%
10,COc1ccccc1CN1C[C@@H]2C[C@@H](c3cccc(O)c3)N3CCC[C@@]23C1=O,inconclusive: -58.8%
11,COc1ccc(-c2cnc3c(c2)CCC3(C#N)C#N)cc1,inconclusive: -47.4%
12,COc1ccc(OCC(=O)N/N=C(\C)CC(=O)Nc2ccc(OC)cc2[N+](=O)[O-])cc1,inconclusive: -50.2%
13,Cc1ccc(Cl)c(NC(=S)N(CCCN2CCOCC2)Cc2ccco2)c1,inconclusive: -48.1%
14,CSCC[C@H](NC(=O)OC(C)(C)C)c1nnc(SCC(=O)Nc2c(C)cccc2C)o1,inconclusive: -42.7%
15,CCCCN(C(=O)c1ccc(S(=O)(=O)N(C)C)cc1)c1ccccc1,inconclusive: -53.7%
16,O=c1[nH]c(=O)n(Cc2ccco2)c2c1C(C(F)(F)F)(C(F)(F)F)N=C(CCC1CCCCC1)N2,inconclusive: -50.5%
17,Cc1cc(C)cc(NC(=O)C2C3C=CC4(O3)C2C(=O)N(CCCN2CCCCC2)C4C(=O)NC2CCCCC2)c1 (stereo not drawn),inconclusive: -43.8%
18,O=C(Nc1cccnc1Cl)c1noc2c1CCc1ccccc1-2,inactive: 66.3%
19,Oc1ccccc1-c1cncn1Cc1ccccc1,inconclusive: -57.1%
20,CCc1cccc(NC(=O)C2CCN(S(=O)(=O)c3ccc4c(c3)CC(C)N4C(C)=O)CC2)c1 (stereo not drawn),active: -85.1%
21,COc1ccc(NC(=O)NC2CCCc3ccccc32)cc1 (stereo not drawn),inconclusive: -50.5%
22,O=C(Nc1cccc(F)c1)C1CCN(C(=O)c2ccc(Br)cc2)CC1,inconclusive: -49%

# Reformatted: 2 of the compounds above.
row | Structure (SMILES) | activity change, negative = inhibition
17 | Cc1cc(C)cc(NC(=O)C2C3C=CC4(O3)C2C(=O)N(CCCN2CCCCC2)C4C(=O)NC2CCCCC2)c1 (stereo not drawn) | inconclusive: -43.8%
18 | O=C(Nc1cccnc1Cl)c1noc2c1CCc1ccccc1-2 | inactive: 66.3%

# (next part)

row,Structure (SMILES),"activity change, negative = inhibition"
1,COc1ccc(-n2c(C)cc(C(=O)CN3C(=O)C(=O)N(Cc4ccccc4)C3=O)c2C)cc1,inactive: -16.9%
2,O=C(CSc1nnc(-c2ccncc2)n1Cc1ccco1)Nc1ccccc1F,inconclusive: -48.8%
3,COc1cc2ncnc(NCCc3ccccc3)c2cc1OC,inconclusive: -50.1%
4,Cc1cccc(C(=O)Nc2cccc3c2CCCC3)c1,active: -101%
5,O=C(Nc1ccc(F)cc1)c1cc2cc(Cl)ccc2[nH]1,inactive: -10.8%
6,CCCc1nc2ccc(NC(=O)c3cccs3)cc2c(=O)n1Cc1ccccc1Cl,inconclusive: -40.2%
7,COc1ccccc1C(=O)N/C(=C\c1cn(S(=O)(=O)N(C)C)c2ccccc12)C(=O)N1CCCC1,inconclusive: -43.8%
8,CCOC(=O)C1CCN(C(=O)c2cn(C)c(=O)c3cc(OC)c(OC)cc23)CC1,inactive: -0.174%
9,CN(C)C(=O)c1cn(-c2ccccc2)nc1-c1cccc([N+](=O)[O-])c1,inconclusive: -48.4%
10,CCC/C(=N\NC(=O)CNC(=O)/C=C/c1ccco1)c1ccccc1,inconclusive: -51.1%
11,CC(C)(C)OC(=O)C1=CC[C@@H](c2ccc(Cl)c(Cl)c2)N(S(=O)(=O)c2ccc(F)cc2)[C@H]1c1cccc(F)c1,active: -64%
12,CCCC(=O)NC(Oc1ccccc1Cl)C(Cl)(Cl)Cl (stereo not drawn),inconclusive: -46.7%
13,CCCOc1ccc(/C=N/Nc2cc(N3CCOCC3)ncn2)c(O)c1,active: -101%
14,COC(=O)c1cccc2c1-c1ccccc1/C2=N/O,inconclusive: -59.3%
15,CCOC(=O)c1c(S(=O)(=O)N2CCC(C(=O)NCc3cccc(OC)c3)CC2)c(C)n(C)c1C,inactive: 10.2%
16,CCCN(CCC)CCCNC(=O)C1c2cc(OC)c(OC)cc2C(=O)N(C)C1c1cccnc1 (stereo not drawn),inconclusive: -43.1%
17,CC1=C(C(=O)OC2CCCC2)C(c2c(F)cccc2Cl)CC(=O)N1 (stereo not drawn),inconclusive: -42.8%
18,Cc1ccc(-c2cn3nc(N4CCCC(C(=O)NCc5ccccc5F)C4)sc3n2)cc1 (stereo not drawn),inconclusive: 0%
19,O=c1cc(-c2ccccc2Cl)oc2c(NS(=O)(=O)c3cccs3)ccc(O)c12,inconclusive: -46.9%
20,CCOc1ccc(NS(=O)(=O)c2ccc3c(c2)NC(=O)CCS3)cc1,inconclusive: -49.7%
21,COc1cccc(C(=O)NC2CCCc3ccccc32)c1OC (stereo not drawn),inconclusive: -57.3%
